# Experimental data published in patent EP4786487A1 (Peptidream Inc, priority 2023, dated 2025).
# Legend:
# [1] = general procedure: Fmoc solid-phase peptide synthesis; H-A-Trt(2-Cl) resin; HATU/DIEA; conditions: whole synthesis, UV 225 nm
# [2] = general procedure: Fmoc solid-phase peptide synthesis; H-dc(Trt)-Trt(2-Cl) resin; Sieber amide resin; Cl-Trt(2-Cl) resin (Watanabe Chemical Industries); HATU/DIEA; conditions: UV 225 nm
# [3] = general procedure: Fmoc solid-phase peptide synthesis; Sieber amide resin; HATU/DIEA; conditions: whole synthesis, UV 225 nm
# [4] = general procedure: Fmoc solid-phase peptide synthesis; H-dc(Trt)-Trt(2-Cl) resin; HATU/DIEA; conditions: whole synthesis, UV 225 nm
# [5] = general procedure: Fmoc solid-phase peptide synthesis; H-G-Trt(2-Cl) resin; HATU/DIEA; conditions: UV 225 nm
Substance,final purity (method not given) ([2]; whole synthesis) [%],also measured
"PEPTIDE1{A.A.[W6H1Ph4COO].Y.[MeF].I.[dP].[F3aao].[F4COO].R.[MeF].[Ano].[MeA].[MeF].[dA].[MeA]}$PEPTIDE1,PEPTIDE1,1:R1-16:R2$$$V2.0",–,final purity (method not given) [1]: 96.0%
"PEPTIDE1{[CH2CO].[CeG].A.[W6H1Ph4COO].Y.[MeF].I.[dP].[F3aao].[F4COO].R.[MeF].[Ano].[MeDap].[MeF].[dC].[Pip4mAc].[am]}$PEPTIDE1,PEPTIDE1,1:R3-16:R3|PEPTIDE1,PEPTIDE1,2:R3-14:R3$$$V2.0",98.7,–
"PEPTIDE1{[CH2CO].[CrpG].A.[W6H1Ph4COO].Y.[MeF].I.[dP].[F3aao].[F4COO].R.[MeF].[Ano].[MeA].[MeF].[dC].[Pip4mAc].[am]}$PEPTIDE1,PEPTIDE1,1:R3-16:R3$$$V2.0",98.3,–
"PEPTIDE1{[CeG].A.[W6H1Ph4COO].Y.[MeF].I.[dP].[F3aao].[F4COO].R.[MeF].[Ano].[MeDap].[MeF].[dA].[MeA]}$PEPTIDE1,PEPTIDE1,1:R1-16:R2|PEPTIDE1,PEPTIDE1,1:R3-13:R3$$$V2.0",94.1,–
"PEPTIDE1{[ClAcT].A.A.W.Y.[MeYap].I.[MeG].[F3aao].[F4COO].R.[MeF].[Ano].[MeA].[MeF].[dC_S].[pipzAc]}$PEPTIDE1,PEPTIDE1,1:R3-16:R3$$$V2.0",99.6,–
"PEPTIDE1{[ClAcT].[CrpG].A.W.Y.[MeF].I.[MeA].[F3aao].[F4COO].R.[MeF].[Ano].[MeA].[MeF].[dC_S].[am]}$PEPTIDE1,PEPTIDE1,1:R3-16:R3$$$V2.0",–,final purity (method not given) [3]: 95.0%
"PEPTIDE1{[ClAcT].[CrpG].A.W.Y.[MeF].I.[MeA].[F3aao].[F4COO].R.[MeF].[Ano].[MeA].[MeF].[dC_S]}$PEPTIDE1,PEPTIDE1,1:R3-16:R3$$$V2.0",–,final purity (method not given) [4]: 99.1%
"PEPTIDE1{[ClAcT].[CrpG].A.W.Y.[MeF].I.[MeG].Y.[F4COO].R.[MeF].L.[MeA].[MeF].[dC_S]}$PEPTIDE1,PEPTIDE1,1:R3-16:R3$$$V2.0",–,final purity (method not given) [4]: 97.8%
"PEPTIDE1{[CrpG].A.W.Y.[MeF].I.[MeA].[F3aao].[F4COO].R.[MeF].[Ano].[MeA].[MeF].[dA].[MeA]}$PEPTIDE1,PEPTIDE1,1:R1-16:R2$$$V2.0",–,final purity (method not given) [2]: 92.0%
"PEPTIDE1{[CrpG].A.[W6H1Ph4COO].Y.[MeF].I.[dP].[F3aao].[F4COO].R.[MeF].[Ano].[MeA].[MeF].[dA].[MeA]}$PEPTIDE1,PEPTIDE1,1:R1-16:R2$$$V2.0",95.0,–
"PEPTIDE1{[MeA].A.W.Y.[MeF].I.[MeA].[F3aao].[F4COO].R.[MeF].[Ano].[MeA].[MeF].G.[MeA]}$PEPTIDE1,PEPTIDE1,1:R1-16:R2$$$V2.0",–,final purity (method not given) [5]: 97.5%
"PEPTIDE1{[MeHgl].A.[W6H1Ph4COO].Y.[MeF].I.[dP].[F3aao].[F4COO].R.[MeF4am].[Ano].[MeA].[MeF].[dA].[MeA]}$PEPTIDE1,PEPTIDE1,1:R1-16:R2|PEPTIDE1,PEPTIDE1,1:R3-11:R3$$$V2.0",92.9,–

# HELM strings list residues between dots; [ac] is acetyl, [am] amide, other brackets name non-standard units.
